Several values for one entry are separate records, joined by “and”; a condition that tells them apart may be missing. Identical values can stand only once. The campaign covered roughly 200,000 compounds. About 25 (0.01%) were called active. Inconclusive results, whose numbers are uncertain, are shown with a selection of clear calls. Calls come from the whole dose curve; as a rule, active = well fitted inhibition curve with a large enough effect in the signal ratio, with a control signal flat (not every such curve was filed as active); inconclusive = small, poorly fitted or top-dose-only effect, or effect the other way, or a change in a side signal; inactive = flat fitted curve, though single readings scatter; the % refers to the signal ratio. A potency beside an inconclusive call is a rough fit, not a confirmed value.
Experiment: qHTS Assay for Modulators of Lamin A Splicing
Settings: HeLa LMNA splicing GFP/RFP minigene ratio, 48 h; ratio change, negative = inhibition: at 46.1 µM (top of the series) unless noted
Summary of the method: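 S3 HeLa stable clones carrying a lamin A-EGFP splicing minigene plus DsRed2 were seeded at 600 cells/well in Opti-MEM with 2% FBS, pin-dosed and incubated 48 h at 37°C. Acumen cytometry (488 nm) gave the GFP/RFP total-intensity ratio.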
In the case of `COc1ccc(C(=O)CSc2nnc(COc3ccccc3)n2Cc2ccco2)cc1`, the ratio change, negative = inhibition is reported as inconclusive: -3.73%. For `COc1ccc(NS(=O)(=O)c2cccc(N/C(=N\S(=O)(=O)c3ccccc3)c3ccc(F)cc3)c2)cc1`, the ratio change, negative = inhibition was inconclusive: -49%. With `COc1ccc2c(c1)C1C=CCC1C(c1cc3c(cc1Br)OCO3)N2` (stereo not given) the ratio change, negative = inhibition was inconclusive: 5.47%. With `COc1cc(NC(=O)c2ccc(COc3ccccc3Br)o2)cc(OC)c1OC` the Potency was inconclusive: 35.5 µM [falling, single point]. With `CCOc1ccc(C(C)=O)cc1CSC(=N)N` the ratio change, negative = inhibition was inconclusive: 16.8% [at 46 µM]. For `O=C(O)c1ccc(N/N=C/c2ccc(OC(=O)c3ccccc3Cl)cc2)cc1`, the “ratio change, negative = inhibition” value was inactive: 8.63%. With `c1cnc2ccc(C(c3nnnn3C3CCCCC3)N3CCCCC3)cc2c1` (stereo not given) the “ratio change, negative = inhibition” value was inactive: -2.41%. With `CC(C)n1c(/C=C/c2ccccc2)nc2ccccc21` the “ratio change, negative = inhibition” value was inactive: -18.3%. With `CCn1c(/C=C/c2c[nH]c3ccccc23)nc2ccccc2c1=O` the “ratio change, negative = inhibition” value was inactive: 25.9% [at 46 µM]. In the case of `[O-][N+](=Nc1ccccc1)c1ccccc1`, the ratio change, negative = inhibition is reported as inconclusive: -6.73%. In the case of `CN(C)/N=C/c1ccc(OS(=O)(=O)c2ccccc2)cc1`, the ratio change, negative = inhibition is reported as inconclusive: 25% [at 46 µM]. For `COc1ccc(OC)c(C(=O)CC2OC(=O)c3ccccc32)c1` (stereo not given), the ratio change, negative = inhibition was inconclusive: -28.7%. For `CCN(CC)C(=O)Cn1c(=O)n(-c2ccc(Cl)c(Cl)c2)c(=O)c2c(C)c(C(=O)N(CC)CC)sc21`, the ratio change, negative = inhibition was inconclusive: -10.8% [at 46 µM]. With `COc1cc(S(=O)(=O)NC2CCCC2)ccc1F` the ratio change, negative = inhibition was inconclusive: -17.2%. For `CN(C(=S)Nc1ccc(SC(F)F)cc1)c1ccc(O)cc1`, the Potency was inconclusive: 25.1 µM [fluorescent, single point]. For `Cn1nnnc1SCCCNCc1ccc(Cl)cc1`, the Potency was inconclusive: 0.282 µM [activator, full curve, poor fit]. In the case of `COc1ccc(Nc2oc(-c3ccc(COc4cccc(C)c4)o3)nc2C#N)cc1`, the “ratio change, negative = inhibition” value is reported as inactive: -6.71% [at 46 µM]. In the case of `CCSc1nnc(NC(=O)c2ccc3ccccc3n2)s1`, the ratio change, negative = inhibition is reported as inconclusive: -30.1%. For `CC(C)C(=O)N1CCN(c2ccccc2NC(=S)NC(=O)c2cccs2)CC1`, the ratio change, negative = inhibition was inconclusive: 13.2% [at 46 µM]. In the case of `Cc1c(NC(=O)Oc2ccccc2)sc(=S)n1C`, the “ratio change, negative = inhibition” value is reported as inactive: 6.94%. For `Cc1ccc(C(C)NC(=O)c2c(C)noc2C)cc1C` (stereo not given), the “ratio change, negative = inhibition” value was inactive: -0.221%. With `CC1CCN(CC(=O)Nc2ccccc2Sc2ccccc2)CC1` the ratio change, negative = inhibition was inconclusive: -15.5%. For `O=[N+]([O-])c1ccc(O)c(/C=N/n2cnc3ccccc32)c1`, the “ratio change, negative = inhibition” value was inactive: -0.574%. For `CN(c1ccc(C(=O)Nc2ccc(Cl)cn2)cc1)S(=O)(=O)c1ccccc1`, the ratio change, negative = inhibition was inconclusive: 10.1% [at 46 µM]. In the case of `c1ccc(-n2cc(CNCCc3cscn3)c(-c3ccc4c(c3)OCO4)n2)cc1`, the “ratio change, negative = inhibition” value is reported as inactive: 5.27% [at 46 µM]. In the case of `COc1ccc(Cn2ccc3nc(C)c(C(=O)Nc4cccc(SC)c4)cc3c2=O)cc1`, the Potency is reported as inconclusive: 11.2 µM [falling, partial curve, poor fit]. With `CCc1nnc(NS(=O)(=O)c2ccc(N=Cc3c(C)[nH]n(-c4ccc(Cl)cc4)c3=O)cc2)s1` the “ratio change, negative = inhibition” value was inactive: -4.25%. With `COCCn1c(=O)c(-c2ccccc2)nc2cnc(Oc3cccc(Cl)c3)nc21` the ratio change, negative = inhibition was inconclusive: -15.2%. With `O=C(NC12CCC(O)C(SC1)/C2=N/O)c1ccccc1` (stereo not given) the ratio change, negative = inhibition was inconclusive: -30.1%. In the case of `Cc1cccc(S(=O)(=O)c2cn(Cc3ccccc3)c3cc(N4CCCCC4)c(F)cc3c2=O)c1`, the ratio change, negative = inhibition is reported as inconclusive: 13.9% [at 46 µM]. With `CCOC(=O)NC(=O)C(=CNNc1ncc(C(F)(F)F)cc1Cl)C(=O)NC(=O)OCC` the Potency was inconclusive: 5.62 µM [cytotoxic, single point]. For `COc1cc(-c2nc(S(=O)(=O)c3ccc(C)cc3)c(N3CCOCC3)o2)cc(OC)c1OC`, the “ratio change, negative = inhibition” value was inactive: 0.371%. For `O=C1NCCN(Cc2ccc(Cl)c(F)c2)C1CC(=O)N1CCc2ccccc2C1` (stereo not given), the ratio change, negative = inhibition was inconclusive: 0.181% [at 46 µM]. For `Cc1nc(-c2ccc(F)cc2)sc1CCNC(=O)Cc1ccc(F)cc1`, the ratio change, negative = inhibition was inconclusive: 37.9% [at 46 µM]. For `COc1ccc(N2C(=O)C(Cl)=C(Nc3ccccc3O)C2=O)cc1`, the “ratio change, negative = inhibition” value was inactive: -19.6%. For `C=CCn1c(CNC(=O)c2ccco2)nnc1SCC(=O)c1ccc(OC)cc1`, the “ratio change, negative = inhibition” value was inactive: 17.7% [at 46 µM]. In the case of `CC1(C)O[C@H]2C[C@@H]3[C@H]4CCC5=CC(=O)CC[C@@]5(C)[C@]4(F)[C@@H](O)C[C@@]3(C)[C@@]2(C(=O)CCl)O1`, the ratio change, negative = inhibition is reported as inconclusive: -9.48%. For `CCNC(=S)Nc1ccc(OC(F)(F)F)cc1`, the Potency was inconclusive: 2.82 µM [inhibitor, partial curve, poor fit]. In the case of `CCCCc1ccc(NC(=S)NCc2ccc(OC)cc2)cc1`, the Potency is reported as inconclusive: 35.5 µM [rising, partial curve]. With `Cc1nc(SCC(=O)N(C)Cc2ccco2)c2c(C)c(C)sc2n1` the ratio change, negative = inhibition was inconclusive: 10.7%. In the case of `Nc1cc(=O)[nH]c(=O)n1-c1cccc(F)c1`, the ratio change, negative = inhibition is reported as inconclusive: -0.955% [at 46 µM]. In the case of `Cc1ccc(NC2=C(Cl)C(=O)c3ccccc3C2=O)cc1`, the ratio change, negative = inhibition is reported as inconclusive: -42.3%. In the case of `COc1ccc(NC(=O)CCC(=O)N/N=C/c2ccc([N+](=O)[O-])s2)cc1`, the ratio change, negative = inhibition is reported as inconclusive: -33.1%. For `Clc1ccc(-c2ccc(C=Nc3ccc(N4CCOCC4)cc3)o2)c(Cl)c1`, the ratio change, negative = inhibition was inactive: -1.6% [at 9.22 µM]. With `COCCNC(=O)Cn1nc(-c2ccccc2)c2ccccc2c1=O` the ratio change, negative = inhibition was inconclusive: 16.5% [at 46 µM]. With `Cn1c(=O)c([N+](=O)[O-])c(Oc2ccccc2)c2ccccc21` the ratio change, negative = inhibition was inconclusive: 7.7% [at 46 µM]. In the case of `COc1ccc(N2C(=O)CC(NCCNc3ccc([N+](=O)[O-])cn3)C2=O)cc1` (stereo not given), the ratio change, negative = inhibition is reported as inconclusive: -1.16%. In the case of `Cc1c(Cl)cccc1NC(=S)N=Nc1c(O)n(CN2CCOCC2)c2ccccc12`, the Potency is reported as inconclusive: 11.2 µM [fluorescent, partial curve]. In the case of `Cc1c2c(c(C)n1C)C(C(=O)NC1CCCCC1)N(Cc1ccccc1)C2=O` (stereo not given), the ratio change, negative = inhibition is reported as inactive: 14.4% [at 9.22 µM]. With `CCCCn1c(N)c(NCc2ccccc2OC)c(=O)[nH]c1=O` the ratio change, negative = inhibition was inconclusive: 19.4% [at 46 µM]. For `Cc1ccc(Cl)cc1N1CCN(S(=O)(=O)c2cccc(S(=O)(=O)N3CCCC3)c2)CC1`, the Potency was inconclusive: 35.5 µM [fluorescent, single point]. With `Cc1cccc(-c2cc(C(=O)Nc3ccc4c(c3)OCCO4)c3ccccc3n2)c1` the ratio change, negative = inhibition was inconclusive: 22.8%. For `NC(=O)c1cnccn1`, the ratio change, negative = inhibition was inconclusive: -9.52% and inconclusive: 5.71%. In the case of `COc1ccc(NC(=O)CCS(=O)(=O)c2cccc3nonc23)c(OC)c1`, the “ratio change, negative = inhibition” value is reported as inactive: -1.27%. For `O=C(CSc1nc2ccccc2c(=O)n1CCCO)NCc1ccccc1`, the “ratio change, negative = inhibition” value was inactive: 0.298%. In the case of `Cc1ccc(-c2csc(NC(=O)CSc3nc(C)cc(=O)[nH]3)n2)cc1`, the ratio change, negative = inhibition is reported as inconclusive: 9.52%. With `CNC(=S)N/N=C/c1cccc(OCc2ccccc2F)c1` the Potency was inconclusive: 35.5 µM [fluorescent, single point]. For `COc1ccc(C(=O)Cn2nc(CNc3ccc(Br)cc3)[n+]3c2CCCCC3)cc1`, the ratio change, negative = inhibition was inconclusive: -35% [at 46 µM]. For `Cc1ccc(O)c(NC(=O)CSc2n[nH]c(C)c2[N+](=O)[O-])c1`, the ratio change, negative = inhibition was inconclusive: -10.6% [at 46 µM]. For `CCOC(=O)c1ccc(CN(Cc2ccc(F)cc2)S(=O)(=O)c2ccc(F)cc2)cc1`, the ratio change, negative = inhibition was inconclusive: -12% [at 46 µM]. For `Clc1c(-c2nnc3n2CCC3)sc2ccccc12`, the “ratio change, negative = inhibition” value was inactive: 4.08%. In the case of `Cc1ccc(CCSc2ccc(C(C)C)cc2)cn1`, the Potency is reported as inconclusive: 35.5 µM [falling, partial curve]. For `CCN(CC)CCNC(=O)c1ccc(N2CCCCC2)c(NS(=O)(=O)c2ccc(C)cc2)c1`, the “ratio change, negative = inhibition” value was inactive: -1.58%. With `Cc1ccc(C(=O)Nc2ccc3nc(SCC(=O)N4CCc5ccccc54)sc3c2)cc1` the ratio change, negative = inhibition was inconclusive: -15.3% [at 46 µM]. In the case of `Cc1ccc(C(=O)Nc2nc(C(C)(C)C)cs2)s1`, the Potency is reported as inconclusive: 31.6 µM [falling, single point]. With `CCC(=O)c1ccc2c(c1)N(CCCN(C)C)c1ccccc1S2` the ratio change, negative = inhibition was inconclusive: -32.5%. With `CC(C)CCN(C(=O)Cc1ccc(Cl)c(Cl)c1)c1c(N)n(Cc2ccccc2)c(=O)[nH]c1=O` the ratio change, negative = inhibition was inconclusive: -34.5% [at 9.22 µM]. For `C=CCn1c(SCC(=O)NCC2CCCO2)nnc1-c1ccccc1` (stereo not given), the “ratio change, negative = inhibition” value was inactive: -3.8% [at 46 µM]. In the case of `COc1ccc(CCNc2oc(COc3ccc(Br)cc3)nc2C#N)cc1OC`, the “ratio change, negative = inhibition” value is reported as inactive: 19.1%. For `CCN(Cc1ccccc1)C(=O)CCS(=O)(=O)c1cc2c(cc1Cl)NC(=O)CO2`, the “ratio change, negative = inhibition” value was inactive: 3.31% [at 46 µM]. For `Brc1ccc(Cn2c(-c3ccc(Br)o3)nc3ccccc32)o1`, the ratio change, negative = inhibition was inconclusive: -35.7%. In the case of `CCOc1ccc(-c2cc(C(=O)NCC3CCCO3)c3ccccc3n2)cc1` (stereo not given), the Potency is reported as inconclusive: 35.5 µM [fluorescent, single point]. With `CCCn1c(=O)c2[nH]c(C3CCCC3)nc2n(CCC)c1=O` the Potency was inconclusive: 35.5 µM [cytotoxic, single point]. With `COc1ccc(C2C(C#N)=C(N)Oc3n[nH]c(C)c32)cc1Cn1nnc2ccccc21` (stereo not given) the ratio change, negative = inhibition was inconclusive: 11%. In the case of `O=C(Nc1cccc(Cl)c1Cl)c1cc(S(=O)(=O)N2CCCCC2)ccc1F`, the “ratio change, negative = inhibition” value is reported as inactive: -5.77% [at 46 µM]. For `COC(=O)C1=NNC2C(=O)N(c3ccc(C)cc3)C(=O)C12` (stereo not given), the “ratio change, negative = inhibition” value was inactive: -6.92% [at 46 µM]. In the case of `Cc1c(C(=O)Nc2ccc3c(c2)OCCO3)sc2nc(-c3ccccc3)cn12`, the ratio change, negative = inhibition is reported as inconclusive: -13.4%. For `COc1cccc(Nc2ncc3nc(-c4cccs4)c(=O)n(-c4ccccc4)c3n2)c1`, the ratio change, negative = inhibition was inconclusive: 68.1%. For `CC1CN(C(=O)c2ccc(C(=O)c3ccccc3)cc2)CC(C)O1` (stereo not given), the “ratio change, negative = inhibition” value was inactive: -2.95%. With `COc1ccc(NC(=O)C(Sc2nnc(-c3ccncc3)n2-c2ccccc2C)c2ccccc2)cc1Cl` (stereo not given) the “ratio change, negative = inhibition” value was inactive: -3.53%.
% is set by controls: 0 for no effect and ±100 for the full control effect; potency is the fitted concentration of half-maximal effect.
